Data: paper PMC7060239
Results are given in words; binding and its absence hold for the method and conditions named. For some of these results: In cells and extracts the contact can be indirect.

Protein sequences, listed by entry. Tags and fused reporters are not part of them.
UniProt P13864: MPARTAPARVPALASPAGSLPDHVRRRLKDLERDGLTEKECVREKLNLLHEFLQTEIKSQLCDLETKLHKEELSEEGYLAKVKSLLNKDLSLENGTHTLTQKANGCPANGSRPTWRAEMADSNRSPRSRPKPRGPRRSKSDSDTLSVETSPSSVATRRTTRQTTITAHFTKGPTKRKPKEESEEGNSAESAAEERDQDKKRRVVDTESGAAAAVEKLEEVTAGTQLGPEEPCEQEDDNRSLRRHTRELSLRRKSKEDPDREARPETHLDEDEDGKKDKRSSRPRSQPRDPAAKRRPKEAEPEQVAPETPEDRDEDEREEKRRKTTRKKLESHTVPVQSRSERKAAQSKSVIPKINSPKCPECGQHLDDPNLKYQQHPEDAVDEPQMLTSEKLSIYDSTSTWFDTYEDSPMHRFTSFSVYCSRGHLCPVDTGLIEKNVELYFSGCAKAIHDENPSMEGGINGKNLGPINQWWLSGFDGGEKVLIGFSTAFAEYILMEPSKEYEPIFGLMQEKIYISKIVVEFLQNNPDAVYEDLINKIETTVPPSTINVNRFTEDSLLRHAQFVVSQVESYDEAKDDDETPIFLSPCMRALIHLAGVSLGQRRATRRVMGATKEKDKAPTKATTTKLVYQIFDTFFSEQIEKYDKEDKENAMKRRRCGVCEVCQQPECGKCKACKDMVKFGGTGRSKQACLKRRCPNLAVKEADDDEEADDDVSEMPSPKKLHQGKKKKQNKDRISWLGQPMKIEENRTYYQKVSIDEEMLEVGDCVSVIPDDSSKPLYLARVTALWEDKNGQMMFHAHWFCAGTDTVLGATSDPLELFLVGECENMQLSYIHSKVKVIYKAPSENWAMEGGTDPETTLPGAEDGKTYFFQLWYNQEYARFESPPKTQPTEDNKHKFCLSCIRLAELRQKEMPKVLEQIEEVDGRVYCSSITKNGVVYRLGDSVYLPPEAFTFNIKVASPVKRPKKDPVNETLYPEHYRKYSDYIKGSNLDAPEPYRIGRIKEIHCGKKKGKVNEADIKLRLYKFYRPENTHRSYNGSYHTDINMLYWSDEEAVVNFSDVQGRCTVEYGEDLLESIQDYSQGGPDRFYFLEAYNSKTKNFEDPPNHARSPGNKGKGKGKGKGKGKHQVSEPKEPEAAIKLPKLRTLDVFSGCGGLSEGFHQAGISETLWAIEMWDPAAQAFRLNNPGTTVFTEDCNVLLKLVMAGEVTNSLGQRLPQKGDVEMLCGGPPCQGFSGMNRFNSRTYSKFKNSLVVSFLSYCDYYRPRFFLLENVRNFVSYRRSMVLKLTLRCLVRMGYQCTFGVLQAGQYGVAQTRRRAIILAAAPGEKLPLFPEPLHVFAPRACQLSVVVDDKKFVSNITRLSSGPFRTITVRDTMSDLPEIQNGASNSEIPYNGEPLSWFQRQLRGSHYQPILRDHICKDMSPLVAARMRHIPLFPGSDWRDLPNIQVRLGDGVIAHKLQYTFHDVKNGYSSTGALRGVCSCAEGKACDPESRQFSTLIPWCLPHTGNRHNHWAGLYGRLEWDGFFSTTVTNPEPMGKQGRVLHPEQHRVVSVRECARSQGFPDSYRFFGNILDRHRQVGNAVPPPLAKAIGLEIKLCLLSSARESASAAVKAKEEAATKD

B1: mPAF15 K15R (Paf15 K15R mESCs) (protein, UniProt Q9CQX4 1-110)
chain: MVRTKANYVPGAYRRAVASQAPRKVLGSSTFVTNSSSSSRKAENKYAGGNPVCVRPTPKWQKGIGEFFRLSPKESKKENQAPEEAGTSGLGKAKRKACPLQPDHRDDENE
B2: mPAF15 K24R (Paf15 K24R mESCs) (protein, UniProt Q9CQX4 1-110)
chain: MVRTKANYVPGAYRKAVASQAPRRVLGSSTFVTNSSSSSRKAENKYAGGNPVCVRPTPKWQKGIGEFFRLSPKESKKENQAPEEAGTSGLGKAKRKACPLQPDHRDDENE
B3: mPAF15 K15R/K24R (Paf15 KRKR mESCs) (protein, UniProt Q9CQX4 1-110)
chain: MVRTKANYVPGAYRRAVASQAPRRVLGSSTFVTNSSSSSRKAENKYAGGNPVCVRPTPKWQKGIGEFFRLSPKESKKENQAPEEAGTSGLGKAKRKACPLQPDHRDDENE
B4: mCherry-mPAF15 K15R/K24R double mutant (protein, UniProt Q9CQX4 1-110)
chain: MVRTKANYVPGAYRRAVASQAPRRVLGSSTFVTNSSSSSRKAENKYAGGNPVCVRPTPKWQKGIGEFFRLSPKESKKENQAPEEAGTSGLGKAKRKACPLQPDHRDDENE

What was measured:
[1] = biological target: endogenous murine DNMT1 (mouse (endogenous in J1 mESCs)) (UniProt P13864); experiment: co-IP; endogenous mDNMT1 precipitated with an anti-DNMT1 nanobody (DNMT1-Trap) from whole-cell lysates of mESCs (WT, D1KO, U1KO, K15R, K24R, KRKR); 2 h, 4 °C; immunoblot
GFP-mDNMT1 (mouse) = GFP-mDNMT1 (mouse) (UniProt P13864); experiment: fluorescent-3-hybrid (F3H) assay; BHK cells with a lacO array; GFP-tagged bait held at the array by GBP-LacI, mCherry-tagged prey; fixed 24 h after transfection; confocal microscopy, mCherry/GFP ratio in the spot

Row | Binder | binding [1] | binding (GFP-mDNMT1 (mouse))
1 | B1 | no binding | –
2 | B2 | no binding | –
3 | B3 | no binding | –
4 | B4 | – | no binding
